Laboratory results reported in PMC3779186.
Results are given in words; binding and its absence hold for the method and conditions named. In cells and extracts the contact can be indirect. Some binding calls cover weakened binding; strength is not graded here.

The chains behind the UniProt entries cited, without tags or fusion partners. Residues count along the entry.
UniProt P78324, residues 31-504: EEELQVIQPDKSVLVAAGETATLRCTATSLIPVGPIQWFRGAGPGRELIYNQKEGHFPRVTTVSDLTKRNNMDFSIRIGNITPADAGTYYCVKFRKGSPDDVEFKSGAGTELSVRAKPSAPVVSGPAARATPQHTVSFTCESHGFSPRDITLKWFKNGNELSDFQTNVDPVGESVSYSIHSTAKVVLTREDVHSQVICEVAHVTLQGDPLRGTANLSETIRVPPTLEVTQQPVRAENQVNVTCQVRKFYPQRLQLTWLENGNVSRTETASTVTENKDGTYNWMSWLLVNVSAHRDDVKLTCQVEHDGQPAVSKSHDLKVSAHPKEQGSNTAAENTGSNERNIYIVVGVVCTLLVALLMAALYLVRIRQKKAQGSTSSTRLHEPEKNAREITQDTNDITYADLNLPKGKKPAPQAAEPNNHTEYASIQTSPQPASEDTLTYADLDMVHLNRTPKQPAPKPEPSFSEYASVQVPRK
UniProt P40763: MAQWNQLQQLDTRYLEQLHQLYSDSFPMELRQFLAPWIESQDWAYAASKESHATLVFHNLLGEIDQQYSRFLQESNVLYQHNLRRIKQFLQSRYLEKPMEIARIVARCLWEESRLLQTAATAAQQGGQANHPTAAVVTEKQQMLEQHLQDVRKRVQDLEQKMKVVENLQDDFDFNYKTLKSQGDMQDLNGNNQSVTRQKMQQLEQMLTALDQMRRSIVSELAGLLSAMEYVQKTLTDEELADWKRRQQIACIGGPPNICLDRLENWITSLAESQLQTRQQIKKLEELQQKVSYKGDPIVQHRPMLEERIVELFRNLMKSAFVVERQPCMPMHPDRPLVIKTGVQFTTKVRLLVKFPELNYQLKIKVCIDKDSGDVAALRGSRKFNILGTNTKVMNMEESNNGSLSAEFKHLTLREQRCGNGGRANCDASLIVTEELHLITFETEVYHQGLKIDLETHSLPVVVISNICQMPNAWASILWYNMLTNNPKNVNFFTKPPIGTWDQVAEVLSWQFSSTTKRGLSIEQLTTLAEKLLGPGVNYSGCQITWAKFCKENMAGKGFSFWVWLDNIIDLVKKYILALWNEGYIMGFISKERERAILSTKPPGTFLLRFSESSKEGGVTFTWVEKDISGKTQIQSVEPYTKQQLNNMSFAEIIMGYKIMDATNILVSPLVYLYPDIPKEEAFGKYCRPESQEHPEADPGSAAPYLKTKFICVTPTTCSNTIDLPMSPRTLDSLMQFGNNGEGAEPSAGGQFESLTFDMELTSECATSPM

What was measured:
[1] = target: signal-regulatory-protein α (SIRPα) (human (endogenous in monocytes of healthy donors)) (UniProt P78324); assay: co-IP; anti-SIRPα precipitates from isolated monocytes; data not shown
[2] = target: signal-regulatory-protein α (SIRPα) (human (endogenous in monocytes of healthy donors)) (UniProt P78324); assay: co-IP; anti-SIRPα mAb and protein A-Sepharose on lysates (1% Nonidet P-40, 150 mM NaCl) of monocytes mixed with MCF-7 without or with 2 h of co-culture; immunoblot with anti-STAT3 and anti-phospho-STAT3 (Tyr705)

“Signal Transducer and Activators of Transcription-3 (STAT3) (from UniProt P40763 1-770)” was tested, and the binding [1] was “binds” and the binding [2] was “binds”.
